# From patent US7169407B1, “Carbonyl stress-decreasing agent” (Kiyoshi Kurokawa, priority 1999, dated 2007)
# At least one compound was matched to its structure with a doubt left.
# How the values were obtained:
# [1] = Carbonyl compound-trapping effect of biguanide agents in phosphate buffer (Example 1); conditions: 3 mM biguanide agent, 0.1 mM carbonyl compounds each, 0.1M phosphate buffer pH7.4, 37° C., over incubation period; HPLC
# [2] = as above; conditions: 3 mM biguanide agent, 0.1 mM carbonyl compounds each, 0.1M phosphate buffer pH7.4, 37° C., over incubation period; HPLC; remark: listed apart in the source
structure (smiles),measurement,setting,value
"CN(C)C(=N)NC(=N)N [metformin, dimethyl biguanide]",concentration of methylglyoxal,[1],markedly decreased
same,concentration of glyoxal,[2],markedly decreased
